The source of these data is paper PMC9512801.

Sequences of proteins named here, by UniProt entry; tags and fusion partners are left off.
UniProt P19878: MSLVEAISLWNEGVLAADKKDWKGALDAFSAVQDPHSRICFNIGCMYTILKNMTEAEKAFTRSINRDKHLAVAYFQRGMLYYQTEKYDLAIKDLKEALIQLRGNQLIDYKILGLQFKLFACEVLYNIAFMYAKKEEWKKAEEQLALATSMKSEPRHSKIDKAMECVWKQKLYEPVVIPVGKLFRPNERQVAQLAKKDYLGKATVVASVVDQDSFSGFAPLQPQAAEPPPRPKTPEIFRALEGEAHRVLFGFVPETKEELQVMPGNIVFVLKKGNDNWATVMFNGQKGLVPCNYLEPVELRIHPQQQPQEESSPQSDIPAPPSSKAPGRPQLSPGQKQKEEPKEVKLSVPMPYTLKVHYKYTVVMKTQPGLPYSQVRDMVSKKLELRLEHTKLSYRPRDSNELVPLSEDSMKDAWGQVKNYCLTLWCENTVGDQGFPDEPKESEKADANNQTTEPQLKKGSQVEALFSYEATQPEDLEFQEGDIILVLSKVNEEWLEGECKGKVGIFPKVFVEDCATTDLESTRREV
UniProt P14598: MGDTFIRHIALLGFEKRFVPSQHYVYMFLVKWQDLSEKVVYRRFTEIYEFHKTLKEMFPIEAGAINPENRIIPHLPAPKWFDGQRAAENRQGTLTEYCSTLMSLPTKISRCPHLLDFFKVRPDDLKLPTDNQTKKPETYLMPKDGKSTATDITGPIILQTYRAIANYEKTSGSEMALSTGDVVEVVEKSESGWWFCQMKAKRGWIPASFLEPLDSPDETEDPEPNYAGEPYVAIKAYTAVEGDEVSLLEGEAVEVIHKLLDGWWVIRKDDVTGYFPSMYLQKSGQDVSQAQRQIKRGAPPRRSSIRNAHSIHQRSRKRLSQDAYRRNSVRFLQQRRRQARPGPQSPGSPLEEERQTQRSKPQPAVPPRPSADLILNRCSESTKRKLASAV
UniProt Q14145: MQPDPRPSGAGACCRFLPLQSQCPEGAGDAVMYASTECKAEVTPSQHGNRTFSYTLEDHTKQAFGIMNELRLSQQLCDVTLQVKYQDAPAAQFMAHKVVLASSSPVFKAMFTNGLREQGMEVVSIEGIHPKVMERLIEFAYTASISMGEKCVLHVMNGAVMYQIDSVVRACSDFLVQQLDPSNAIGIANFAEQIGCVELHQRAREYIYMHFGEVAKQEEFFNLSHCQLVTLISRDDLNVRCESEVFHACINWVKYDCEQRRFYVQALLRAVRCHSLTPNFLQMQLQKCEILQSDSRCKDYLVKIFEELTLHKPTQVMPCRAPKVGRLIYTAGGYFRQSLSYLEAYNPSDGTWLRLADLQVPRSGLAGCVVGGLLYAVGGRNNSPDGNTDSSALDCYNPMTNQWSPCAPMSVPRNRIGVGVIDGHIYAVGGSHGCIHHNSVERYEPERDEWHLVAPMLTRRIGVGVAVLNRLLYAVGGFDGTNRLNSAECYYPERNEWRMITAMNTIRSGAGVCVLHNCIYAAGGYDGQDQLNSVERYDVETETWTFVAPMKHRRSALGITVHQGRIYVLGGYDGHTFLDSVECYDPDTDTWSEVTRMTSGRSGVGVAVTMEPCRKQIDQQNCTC
UniProt Q16236: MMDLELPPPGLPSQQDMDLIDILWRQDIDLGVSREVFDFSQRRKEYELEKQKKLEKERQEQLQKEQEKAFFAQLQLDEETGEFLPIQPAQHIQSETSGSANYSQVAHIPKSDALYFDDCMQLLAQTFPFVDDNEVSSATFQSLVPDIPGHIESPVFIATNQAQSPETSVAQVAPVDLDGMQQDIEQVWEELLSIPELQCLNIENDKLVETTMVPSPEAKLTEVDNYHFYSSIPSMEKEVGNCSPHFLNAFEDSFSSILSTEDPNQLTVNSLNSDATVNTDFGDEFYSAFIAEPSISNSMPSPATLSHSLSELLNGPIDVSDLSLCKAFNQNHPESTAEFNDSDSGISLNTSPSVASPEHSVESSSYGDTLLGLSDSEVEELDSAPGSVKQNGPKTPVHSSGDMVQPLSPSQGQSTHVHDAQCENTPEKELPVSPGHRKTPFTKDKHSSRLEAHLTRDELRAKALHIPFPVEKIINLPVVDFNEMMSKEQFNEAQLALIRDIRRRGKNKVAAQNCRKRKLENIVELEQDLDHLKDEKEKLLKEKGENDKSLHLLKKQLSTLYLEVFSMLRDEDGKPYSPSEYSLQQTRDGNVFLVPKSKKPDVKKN
UniProt Q86TM6: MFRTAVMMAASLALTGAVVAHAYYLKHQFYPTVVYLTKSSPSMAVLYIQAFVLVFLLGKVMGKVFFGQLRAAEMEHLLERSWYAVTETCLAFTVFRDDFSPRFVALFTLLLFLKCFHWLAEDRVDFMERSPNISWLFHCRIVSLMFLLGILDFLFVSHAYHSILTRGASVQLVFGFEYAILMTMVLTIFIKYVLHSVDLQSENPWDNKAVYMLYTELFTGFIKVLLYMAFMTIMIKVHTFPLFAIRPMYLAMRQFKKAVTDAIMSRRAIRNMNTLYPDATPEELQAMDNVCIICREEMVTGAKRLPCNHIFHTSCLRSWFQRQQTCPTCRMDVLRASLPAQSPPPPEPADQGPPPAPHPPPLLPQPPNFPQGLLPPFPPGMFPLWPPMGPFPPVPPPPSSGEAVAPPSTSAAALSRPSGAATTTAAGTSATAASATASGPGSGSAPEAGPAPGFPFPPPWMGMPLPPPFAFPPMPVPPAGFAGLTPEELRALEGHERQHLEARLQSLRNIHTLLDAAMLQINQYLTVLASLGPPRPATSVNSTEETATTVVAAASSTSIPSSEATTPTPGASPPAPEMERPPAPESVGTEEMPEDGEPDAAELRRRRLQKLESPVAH

Experiment [1] addresses p67^phox (human (endogenous in EA.hy926)) (UniProt P19878). In words: co-IP; lysates of endothelial cells (control, ox-LDL/HG, with or without Rb1 pretreatment) incubated with IgG or the primary antibody for 2 h at 4 °C, Protein G PLUS-Agarose, washed with PBS, western blot. Background: In western blotting, separated proteins are transferred to a membrane and probed.
Experiment [2] has as its target p47^phox (human (endogenous in EA.hy926)) (UniProt P14598). The experiment is described as above.
The target of experiment [3] is T1, PGC-1α (human (endogenous in EA.hy926)) (UniProt Q9UBK2).
T1 sequence: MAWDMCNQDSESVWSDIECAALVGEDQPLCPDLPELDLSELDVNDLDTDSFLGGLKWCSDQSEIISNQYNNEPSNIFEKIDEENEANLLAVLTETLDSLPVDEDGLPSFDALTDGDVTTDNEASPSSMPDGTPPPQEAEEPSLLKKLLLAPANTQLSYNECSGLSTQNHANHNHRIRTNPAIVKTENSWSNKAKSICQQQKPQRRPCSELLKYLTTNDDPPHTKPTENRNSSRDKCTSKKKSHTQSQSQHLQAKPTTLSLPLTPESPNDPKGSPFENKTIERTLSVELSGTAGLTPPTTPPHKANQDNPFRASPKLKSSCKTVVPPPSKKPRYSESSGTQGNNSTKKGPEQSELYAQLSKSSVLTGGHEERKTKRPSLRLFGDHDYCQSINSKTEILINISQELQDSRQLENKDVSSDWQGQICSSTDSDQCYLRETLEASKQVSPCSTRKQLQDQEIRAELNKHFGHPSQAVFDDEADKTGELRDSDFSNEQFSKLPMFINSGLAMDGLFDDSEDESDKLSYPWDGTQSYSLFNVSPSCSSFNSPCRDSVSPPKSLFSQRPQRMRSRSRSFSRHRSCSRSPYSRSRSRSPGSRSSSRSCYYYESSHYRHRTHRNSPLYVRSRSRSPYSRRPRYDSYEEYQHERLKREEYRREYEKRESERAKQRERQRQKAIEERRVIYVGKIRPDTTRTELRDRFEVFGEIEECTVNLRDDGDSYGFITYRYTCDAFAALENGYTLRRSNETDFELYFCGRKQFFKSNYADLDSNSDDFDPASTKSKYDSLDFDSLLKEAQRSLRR
The experiment is described as above.

Experiment [4] addresses Keap1 (as in the co-immunoprecipitation with SYVN1, Fig. 5E) (UniProt Q14145). Put plainly: co-IP; interaction of Keap1 with SYVN1 detected by immunoprecipitation; cells, constructs and precipitating antibody not stated.
In experiment [5] the target is p47^phox (human (endogenous in EA.hy926)) (UniProt P14598). In words: co-IP; lysates of endothelial cells (control, ox-LDL/HG, with or without Rb1 pretreatment) incubated with IgG or the primary antibody for 2 h at 4 °C, Protein G PLUS-Agarose, washed with PBS, western blot. The source holds these as a separate data set.

Like-named read-outs stand apart in the source and are kept apart here. These are yes or no findings as the source states them, for the method shown. Binding seen in cells or lysates may run through a third protein. Some binding calls cover weakened binding; strength is not graded here.

For p47^phox (from UniProt P14598 1-390), the binding entry in experiment [1] is given as “binds”. On to “Kelch-like ECH-associated protein 1 (Keap1) (from UniProt Q14145 1-624)”, for which the binding entry in experiment [2] is recorded as “binds”. For “Nuclear factor erythroid 2-related factor 2 (Nrf2) (from UniProt Q16236 1-605)”, the binding entry in experiment [2] and in experiment [3] was “binds” each time.

For the molecule “E3 ligase synovial apoptosis inhibitor 1 (SYVN1) (from UniProt Q86TM6 1-617)”, the binding result in experiment [4] is recorded as “binds”.

B1: p22^phox (protein, UniProt P13498 1-195)
chain: MGQIEWAMWANEQALASGLILITGGIVATAGRFTQWYFGAYSIVAGVFVCLLEYPRGKRKKGSTMERWGQKYMTAVVKLFGPFTRNYYVRAVLHLLLSVPAGFLLATILGTACLAIASGIYLLAAVRGEQWTPIEPKPRERPQIGGTIKQPPSNPPPRPPAEARKKPSEEEAAVAAGGPPGGPQVNPIPVTDEVV
On to B1, for which the binding entry in experiment [5] is “binds”.
